# PubChem BioAssay AID1508597, Cure First, 2020
# Screen: 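Survival screen with siRNA in ovarian cancer cells derived from patients, with or without rucaparib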 (primary screen)
# System: human ovarian carcinoma lines grown from tumours: OCI-P5x (papillary serous) and OCI-C5x (clear cell)
# Reagents: siRNA pool against human genes, 1.25 pmol siRNA per well
# Duration: 72 h or 96 h, depending on the cell culture
# Conditions: rucaparib 20 µM (about IC30) or vehicle, present until read-out
# Rucaparib or vehicle: Vehicle
# Cell line: OCI-C5x (clear cell)
# Read-out: 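Luminescent ATP-based viability assay read 72 or 96 h after transfection, depending on culture, given as normalised percent viability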
# Scale: viability, normalised: higher = more viable cells remaining
# Rule for the call: 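Active when normalised viability falls below 80 percent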
# Calls: active = viability under 80%; inactive = viability 80% or more
# Shown is an unselected part of the about 2,100 reagents, in one setting of the screen. 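Calls flag viability under 80% in either arm, not effects specific to rucaparib; the reference for percent is not stated.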 Unmarked entries are inactive. Some reagents were tested in more than one well and are listed for each. Not given: the 100% reference.
Gene,technical replicate,"viability, normalised (%)"
DPYD (dihydropyrimidine dehydrogenase),1,41.8 (active)
DPYD (dihydropyrimidine dehydrogenase),2,44.2 (active)
DPYD (dihydropyrimidine dehydrogenase),3,48.8 (active)
BRCA2 (BRCA2 DNA repair associated),1,63.9 (active)
BRCA2 (BRCA2 DNA repair associated),1,26.4 (active)
BRCA2 (BRCA2 DNA repair associated),1,61.9 (active)
BRCA2 (BRCA2 DNA repair associated),2,52 (active)
BRCA2 (BRCA2 DNA repair associated),2,53.7 (active)
BRCA2 (BRCA2 DNA repair associated),2,42.4 (active)
BRCA2 (BRCA2 DNA repair associated),3,32.8 (active)
BRCA2 (BRCA2 DNA repair associated),3,42.3 (active)
BRCA2 (BRCA2 DNA repair associated),3,64.3 (active)
AURKB (aurora kinase B),1,33.4 (active)
AURKB (aurora kinase B),1,61 (active)
AURKB (aurora kinase B),2,42.6 (active)
AURKB (aurora kinase B),2,52.3 (active)
AURKB (aurora kinase B),3,69 (active)
AURKB (aurora kinase B),3,31.9 (active)
PASK (PAS domain containing serine/threonine kinase),1,53.6 (active)
PASK (PAS domain containing serine/threonine kinase),2,42.5 (active)
PASK (PAS domain containing serine/threonine kinase),3,49.4 (active)
VAX2 (ventral anterior homeobox 2),1,40.6 (active)
VAX2 (ventral anterior homeobox 2),2,84.6
VAX2 (ventral anterior homeobox 2),3,90.6
DDX24 (DEAD-box helicase 24),1,39.8 (active)
DDX24 (DEAD-box helicase 24),2,32.2 (active)
DDX24 (DEAD-box helicase 24),3,42.5 (active)
AK4 (adenylate kinase 4),1,57.1 (active)
AK4 (adenylate kinase 4),2,63.1 (active)
AK4 (adenylate kinase 4),3,70.8 (active)
RERE (arginine-glutamic acid dipeptide repeats),1,48.2 (active)
RERE (arginine-glutamic acid dipeptide repeats),2,40.3 (active)
RERE (arginine-glutamic acid dipeptide repeats),3,52.7 (active)
ENPP6 (ectonucleotide pyrophosphatase/phosphodiesterase 6),1,63.9 (active)
ENPP6 (ectonucleotide pyrophosphatase/phosphodiesterase 6),2,64.2 (active)
ENPP6 (ectonucleotide pyrophosphatase/phosphodiesterase 6),3,70.3 (active)
DDX4 (DEAD-box helicase 4),1,35.7 (active)
DDX4 (DEAD-box helicase 4),2,41.2 (active)
DDX4 (DEAD-box helicase 4),3,36.9 (active)
PIK3CA,1,52.7 (active)
PIK3CA,1,43.6 (active)
PIK3CA,2,49.7 (active)
PIK3CA,2,49 (active)
PIK3CA,3,38 (active)
PIK3CA,3,46 (active)
ZDHHC2 (zDHHC palmitoyltransferase 2),1,61.6 (active)
ZDHHC2 (zDHHC palmitoyltransferase 2),2,70.8 (active)
ZDHHC2 (zDHHC palmitoyltransferase 2),3,72.6 (active)
TTK (TTK protein kinase),1,44.8 (active)
TTK (TTK protein kinase),2,47.9 (active)
TTK (TTK protein kinase),3,42 (active)
GDAP2 (ganglioside induced differentiation associated protein 2),1,45.9 (active)
GDAP2 (ganglioside induced differentiation associated protein 2),2,40.9 (active)
GDAP2 (ganglioside induced differentiation associated protein 2),3,31.2 (active)
FANCA (FA complementation group A),1,55 (active)
FANCA (FA complementation group A),2,55.5 (active)
FANCA (FA complementation group A),3,50.7 (active)

Reformatted: results already given.
{"Gene": "AURKB (aurora kinase B)", "technical replicate": "1", "viability, normalised (%)": "61 (active)"}
{"Gene": "AURKB (aurora kinase B)", "technical replicate": "2", "viability, normalised (%)": "42.6 (active)"}
{"Gene": "AURKB (aurora kinase B)", "technical replicate": "2", "viability, normalised (%)": "52.3 (active)"}
{"Gene": "AURKB (aurora kinase B)", "technical replicate": "3", "viability, normalised (%)": "69 (active)"}
{"Gene": "AURKB (aurora kinase B)", "technical replicate": "3", "viability, normalised (%)": "31.9 (active)"}
{"Gene": "PASK (PAS domain containing serine/threonine kinase)", "technical replicate": "1", "viability, normalised (%)": "53.6 (active)"}
{"Gene": "PASK (PAS domain containing serine/threonine kinase)", "technical replicate": "2", "viability, normalised (%)": "42.5 (active)"}
